Measurements as given in the supplement of paper PMC10849652.
The list shows a part of the results.

Chains of the proteins cited; added tags and fusions are not shown. Lines headed by an entry give the natural chain unless they say otherwise; changes in a name come on top.
UniProt O60637: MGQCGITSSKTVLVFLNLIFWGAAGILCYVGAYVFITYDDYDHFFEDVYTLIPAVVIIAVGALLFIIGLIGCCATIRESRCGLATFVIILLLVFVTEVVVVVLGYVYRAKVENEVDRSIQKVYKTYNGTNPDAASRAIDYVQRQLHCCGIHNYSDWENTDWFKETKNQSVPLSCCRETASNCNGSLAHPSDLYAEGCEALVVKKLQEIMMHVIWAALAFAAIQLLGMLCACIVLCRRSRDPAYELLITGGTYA
UniProt O95801: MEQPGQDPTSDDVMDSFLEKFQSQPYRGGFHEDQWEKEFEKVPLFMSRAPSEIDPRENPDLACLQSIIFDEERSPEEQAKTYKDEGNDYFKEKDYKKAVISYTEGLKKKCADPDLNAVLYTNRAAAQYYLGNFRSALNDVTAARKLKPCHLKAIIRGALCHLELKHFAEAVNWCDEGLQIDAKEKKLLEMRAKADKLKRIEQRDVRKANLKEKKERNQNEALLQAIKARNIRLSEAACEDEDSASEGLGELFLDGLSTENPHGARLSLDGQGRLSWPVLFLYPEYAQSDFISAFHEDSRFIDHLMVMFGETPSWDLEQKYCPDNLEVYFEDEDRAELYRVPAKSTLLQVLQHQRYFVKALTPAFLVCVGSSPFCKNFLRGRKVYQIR
UniProt Q7Z3V4: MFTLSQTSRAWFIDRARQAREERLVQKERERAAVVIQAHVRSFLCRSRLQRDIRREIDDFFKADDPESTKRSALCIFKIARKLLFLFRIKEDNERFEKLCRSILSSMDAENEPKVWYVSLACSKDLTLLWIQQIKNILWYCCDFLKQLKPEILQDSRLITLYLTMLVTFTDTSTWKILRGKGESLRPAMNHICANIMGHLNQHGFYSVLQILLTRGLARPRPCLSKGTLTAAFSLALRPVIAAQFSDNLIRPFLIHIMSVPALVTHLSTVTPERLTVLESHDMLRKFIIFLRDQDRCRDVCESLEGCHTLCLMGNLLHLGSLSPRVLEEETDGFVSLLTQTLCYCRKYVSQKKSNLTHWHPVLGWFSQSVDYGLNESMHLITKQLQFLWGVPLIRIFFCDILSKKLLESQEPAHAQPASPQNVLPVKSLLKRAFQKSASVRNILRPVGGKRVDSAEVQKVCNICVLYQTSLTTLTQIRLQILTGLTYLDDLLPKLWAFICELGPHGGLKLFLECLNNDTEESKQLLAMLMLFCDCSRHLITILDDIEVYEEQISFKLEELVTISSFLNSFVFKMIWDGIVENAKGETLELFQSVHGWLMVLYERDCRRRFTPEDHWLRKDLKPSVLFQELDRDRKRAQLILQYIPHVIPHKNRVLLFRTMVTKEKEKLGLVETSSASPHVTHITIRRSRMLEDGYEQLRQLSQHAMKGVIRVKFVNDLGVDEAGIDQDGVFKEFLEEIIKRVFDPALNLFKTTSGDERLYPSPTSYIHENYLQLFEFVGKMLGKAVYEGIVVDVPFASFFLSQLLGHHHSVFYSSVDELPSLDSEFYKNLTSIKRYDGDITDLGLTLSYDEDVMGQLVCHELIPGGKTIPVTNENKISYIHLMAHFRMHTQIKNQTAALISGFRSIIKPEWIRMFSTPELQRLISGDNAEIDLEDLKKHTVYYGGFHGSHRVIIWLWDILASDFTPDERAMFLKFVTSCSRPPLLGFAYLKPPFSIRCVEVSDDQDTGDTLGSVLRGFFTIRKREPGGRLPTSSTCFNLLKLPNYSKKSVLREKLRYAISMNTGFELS
UniProt A6NNZ2, whole entry, looked up: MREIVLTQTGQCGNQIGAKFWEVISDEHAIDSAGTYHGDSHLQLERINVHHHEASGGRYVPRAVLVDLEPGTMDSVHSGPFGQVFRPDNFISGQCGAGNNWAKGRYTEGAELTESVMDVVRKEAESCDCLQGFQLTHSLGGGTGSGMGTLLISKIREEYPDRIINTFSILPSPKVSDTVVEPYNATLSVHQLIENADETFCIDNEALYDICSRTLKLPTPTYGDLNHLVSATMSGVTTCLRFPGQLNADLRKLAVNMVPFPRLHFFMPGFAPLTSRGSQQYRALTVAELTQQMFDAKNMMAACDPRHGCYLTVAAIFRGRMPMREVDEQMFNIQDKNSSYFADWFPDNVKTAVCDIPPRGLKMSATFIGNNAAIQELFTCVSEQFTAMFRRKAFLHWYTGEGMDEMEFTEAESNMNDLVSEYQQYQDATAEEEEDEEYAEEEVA
UniProt P04350, whole entry, looked up: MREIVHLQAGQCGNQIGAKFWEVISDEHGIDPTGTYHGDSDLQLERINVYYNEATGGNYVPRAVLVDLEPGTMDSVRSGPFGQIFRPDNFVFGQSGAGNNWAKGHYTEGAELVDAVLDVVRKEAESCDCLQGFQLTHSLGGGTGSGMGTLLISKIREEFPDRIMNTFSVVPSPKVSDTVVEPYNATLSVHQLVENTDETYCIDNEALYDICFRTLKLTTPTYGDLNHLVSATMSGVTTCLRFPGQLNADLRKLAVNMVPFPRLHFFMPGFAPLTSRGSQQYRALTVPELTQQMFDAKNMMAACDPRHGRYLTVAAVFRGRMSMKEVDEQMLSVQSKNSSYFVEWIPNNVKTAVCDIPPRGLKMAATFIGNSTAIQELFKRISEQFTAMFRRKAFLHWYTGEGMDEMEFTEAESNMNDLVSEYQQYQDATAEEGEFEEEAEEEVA
UniProt Q5BVD1: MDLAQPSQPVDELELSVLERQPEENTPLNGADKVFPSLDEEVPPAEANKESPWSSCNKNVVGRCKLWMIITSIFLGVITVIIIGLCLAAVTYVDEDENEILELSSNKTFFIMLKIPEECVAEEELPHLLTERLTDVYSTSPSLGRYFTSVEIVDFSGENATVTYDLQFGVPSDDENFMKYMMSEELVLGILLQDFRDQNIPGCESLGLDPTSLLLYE
UniProt Q9UGJ1, whole entry, looked up: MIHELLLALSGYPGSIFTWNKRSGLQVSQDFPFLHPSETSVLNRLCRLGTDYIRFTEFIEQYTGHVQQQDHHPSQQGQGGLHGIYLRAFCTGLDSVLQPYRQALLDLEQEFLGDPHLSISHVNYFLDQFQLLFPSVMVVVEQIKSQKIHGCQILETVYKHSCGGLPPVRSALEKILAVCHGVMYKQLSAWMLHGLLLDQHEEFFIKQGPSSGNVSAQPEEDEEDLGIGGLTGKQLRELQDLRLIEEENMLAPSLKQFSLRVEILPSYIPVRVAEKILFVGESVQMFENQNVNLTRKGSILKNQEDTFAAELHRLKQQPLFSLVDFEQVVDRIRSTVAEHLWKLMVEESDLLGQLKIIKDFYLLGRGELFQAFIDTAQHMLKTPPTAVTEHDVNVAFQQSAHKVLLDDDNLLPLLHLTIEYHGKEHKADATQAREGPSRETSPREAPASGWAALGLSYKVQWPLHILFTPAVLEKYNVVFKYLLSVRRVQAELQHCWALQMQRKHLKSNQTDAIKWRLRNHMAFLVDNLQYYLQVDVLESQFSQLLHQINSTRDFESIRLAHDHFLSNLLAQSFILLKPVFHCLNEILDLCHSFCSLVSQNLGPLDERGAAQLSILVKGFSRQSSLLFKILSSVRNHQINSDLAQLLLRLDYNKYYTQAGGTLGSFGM
UniProt Q9BTX7: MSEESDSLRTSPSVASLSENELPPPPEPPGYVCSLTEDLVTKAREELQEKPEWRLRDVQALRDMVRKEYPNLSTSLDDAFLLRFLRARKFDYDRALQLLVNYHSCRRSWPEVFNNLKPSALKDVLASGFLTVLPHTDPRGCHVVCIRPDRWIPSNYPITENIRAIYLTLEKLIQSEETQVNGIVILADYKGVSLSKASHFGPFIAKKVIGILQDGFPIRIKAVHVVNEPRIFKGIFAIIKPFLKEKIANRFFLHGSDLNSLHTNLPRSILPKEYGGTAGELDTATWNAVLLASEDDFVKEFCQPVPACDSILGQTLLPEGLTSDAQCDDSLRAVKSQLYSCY
UniProt Q12999: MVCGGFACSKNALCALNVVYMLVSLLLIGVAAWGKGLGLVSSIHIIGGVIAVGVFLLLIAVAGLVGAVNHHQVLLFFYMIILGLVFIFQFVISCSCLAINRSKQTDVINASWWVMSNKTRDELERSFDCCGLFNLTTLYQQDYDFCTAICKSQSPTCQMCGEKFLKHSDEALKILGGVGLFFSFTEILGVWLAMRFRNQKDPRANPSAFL
UniProt P60604: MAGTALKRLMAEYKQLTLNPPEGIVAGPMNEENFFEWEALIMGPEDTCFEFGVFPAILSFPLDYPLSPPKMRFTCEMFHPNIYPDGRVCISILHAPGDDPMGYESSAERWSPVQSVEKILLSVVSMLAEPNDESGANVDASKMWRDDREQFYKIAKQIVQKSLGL
UniProt P43897: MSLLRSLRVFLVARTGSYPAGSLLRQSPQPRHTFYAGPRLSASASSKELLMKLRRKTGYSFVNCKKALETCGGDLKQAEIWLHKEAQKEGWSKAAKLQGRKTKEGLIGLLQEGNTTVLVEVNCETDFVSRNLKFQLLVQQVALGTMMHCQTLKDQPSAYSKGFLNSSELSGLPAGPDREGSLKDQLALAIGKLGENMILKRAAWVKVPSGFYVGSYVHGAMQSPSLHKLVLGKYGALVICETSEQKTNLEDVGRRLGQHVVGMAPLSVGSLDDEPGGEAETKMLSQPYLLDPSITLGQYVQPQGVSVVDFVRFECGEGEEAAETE
UniProt Q14157: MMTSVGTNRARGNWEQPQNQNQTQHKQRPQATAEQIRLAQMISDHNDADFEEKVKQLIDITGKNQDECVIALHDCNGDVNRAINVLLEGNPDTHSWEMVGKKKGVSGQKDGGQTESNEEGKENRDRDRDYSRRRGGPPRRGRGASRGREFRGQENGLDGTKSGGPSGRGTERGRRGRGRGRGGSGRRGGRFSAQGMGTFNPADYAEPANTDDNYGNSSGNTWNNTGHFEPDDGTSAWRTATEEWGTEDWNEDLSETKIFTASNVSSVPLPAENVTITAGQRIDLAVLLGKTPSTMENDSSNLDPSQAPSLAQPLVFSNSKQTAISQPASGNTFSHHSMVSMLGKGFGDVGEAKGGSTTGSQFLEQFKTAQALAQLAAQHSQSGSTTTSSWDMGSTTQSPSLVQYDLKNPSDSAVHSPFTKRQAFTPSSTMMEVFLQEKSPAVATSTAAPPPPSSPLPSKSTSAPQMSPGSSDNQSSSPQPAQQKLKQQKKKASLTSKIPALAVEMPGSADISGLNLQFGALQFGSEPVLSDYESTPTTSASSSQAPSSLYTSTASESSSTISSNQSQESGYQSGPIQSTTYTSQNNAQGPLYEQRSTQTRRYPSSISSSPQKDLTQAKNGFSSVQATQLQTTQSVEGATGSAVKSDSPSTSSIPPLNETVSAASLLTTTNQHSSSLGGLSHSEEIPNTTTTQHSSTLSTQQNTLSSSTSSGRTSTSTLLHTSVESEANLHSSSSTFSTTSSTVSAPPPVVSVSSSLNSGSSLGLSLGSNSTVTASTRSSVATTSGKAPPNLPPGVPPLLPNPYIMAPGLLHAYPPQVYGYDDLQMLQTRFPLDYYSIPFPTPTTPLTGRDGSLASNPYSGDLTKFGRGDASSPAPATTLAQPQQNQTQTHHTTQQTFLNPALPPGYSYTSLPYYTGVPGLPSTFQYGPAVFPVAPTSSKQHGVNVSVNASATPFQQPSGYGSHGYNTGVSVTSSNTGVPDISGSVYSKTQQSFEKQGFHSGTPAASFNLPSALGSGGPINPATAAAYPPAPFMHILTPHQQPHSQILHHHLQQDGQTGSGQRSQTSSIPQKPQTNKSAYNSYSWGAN
UniProt Q6PKC3: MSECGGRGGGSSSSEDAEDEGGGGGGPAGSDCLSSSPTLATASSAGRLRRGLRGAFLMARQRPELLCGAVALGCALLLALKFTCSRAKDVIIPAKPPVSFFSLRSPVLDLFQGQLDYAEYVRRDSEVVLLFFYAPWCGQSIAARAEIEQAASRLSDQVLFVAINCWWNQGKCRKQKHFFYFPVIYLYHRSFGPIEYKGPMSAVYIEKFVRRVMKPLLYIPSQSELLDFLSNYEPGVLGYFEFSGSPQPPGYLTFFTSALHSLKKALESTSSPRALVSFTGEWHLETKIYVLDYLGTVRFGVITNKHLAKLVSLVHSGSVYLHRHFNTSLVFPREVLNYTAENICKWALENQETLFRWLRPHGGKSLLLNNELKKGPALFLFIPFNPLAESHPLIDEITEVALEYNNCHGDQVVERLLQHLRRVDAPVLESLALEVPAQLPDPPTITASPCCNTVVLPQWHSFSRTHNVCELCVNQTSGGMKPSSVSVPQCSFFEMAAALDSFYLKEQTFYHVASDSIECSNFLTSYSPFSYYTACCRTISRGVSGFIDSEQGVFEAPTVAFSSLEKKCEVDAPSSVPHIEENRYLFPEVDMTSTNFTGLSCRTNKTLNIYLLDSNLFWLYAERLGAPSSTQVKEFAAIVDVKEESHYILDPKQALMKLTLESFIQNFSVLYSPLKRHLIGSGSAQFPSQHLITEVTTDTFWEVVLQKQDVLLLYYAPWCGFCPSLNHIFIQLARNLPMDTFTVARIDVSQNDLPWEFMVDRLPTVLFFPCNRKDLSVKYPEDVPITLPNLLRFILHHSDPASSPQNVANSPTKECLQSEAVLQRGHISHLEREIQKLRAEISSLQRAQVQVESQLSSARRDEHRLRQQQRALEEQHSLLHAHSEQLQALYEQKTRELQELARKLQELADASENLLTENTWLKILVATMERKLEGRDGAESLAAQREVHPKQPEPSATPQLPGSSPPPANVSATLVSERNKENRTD

Assays:
Assay in all cases: log2 fold change, soluble protein after heating vs DMSO (PISA); higher = thermal stabilisation; K562 cells, 10 uM, 30 min; active = over 0.2 and 3.5 SD of the protein, either way, in both replicates (recomputed)
[1] = compound: COC1=CC=C(C=C1)CN2C=CC3=C2C=C(C=C3)C(=O)NO
Method in brief: (§1)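 K562 cells at 2×10^6 cells/mL were treated with 10 μM compound for 30 min. Aliquots were heated for 3 min across 48°C-58°C, pooled, and extracted in PBS with 0.5% NP-40 at 4°C; soluble protein was the supernatant after 21,000xg for 90 min. Soluble protein was quantified by TMTpro 16plex LC-MS/MS with channel sums equalised, and reported as log2 fold change in thermal stability against DMSO controls, with values from duplicates.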

[2] = compound: CON(C)C(=O)N1N=C(c2cc(F)ccc2F)S[C@@]1(CCCN)c1ccccc1 [filanesib]
Method in brief: as §1

[3] = compound: CO[C@H]1C[C@@H]2CC[C@@H](C)[C@@](O)(O2)C(=O)C(=O)N2CCCC[C@H]2C(=O)O[C@H]([C@H](C)C[C@@H]2CC[C@H](n3cnnn3)[C@H](OC)C2)CC(=O)[C@H](C)/C=C(\C)[C@@H](O)[C@@H](OC)C(=O)[C@H](C)C[C@H](C)/C=C/C=C/C=C/1C [zotarolimus]
Method in brief: as §1

[4] = compound: COc1cc(C(=O)O)ccc1NC(=O)[C@@H]1N[C@@H](CC(C)(C)C)[C@](C#N)(c2ccc(Cl)cc2F)[C@H]1c1cccc(Cl)c1F [idasanutlin]
Method in brief: as §1

[5] = compound: COc1cc(Nc2ncc3c(n2)-c2ccc(Cl)cc2C(c2c(F)cccc2OC)=NC3)ccc1C(=O)O [alisertib]
Method in brief: as §1

[6] = compound: COc1cc2nc(-c3cc(F)ccc3O)nc(N[C@@H]3CNC[C@H]3C(C)(C)O)c2cc1OC
Method in brief: as §1

[7] = compound: COc1cc2ncnc(Nc3ccc(F)c(Cl)c3)c2cc1OCCCN1CCOCC1 [gefitinib]
Method in brief: as §1

[8] = compound: COc1cccc2cc(-c3nc([C@H]4CC[C@H](C(=O)O)CC4)n4ncnc(N)c34)[nH]c12
Method in brief: as §1

[9] = compound: CS(=O)(=O)CCNCc1ccc(-c2ccc3ncnc(Nc4ccc(OCc5cccc(F)c5)c(Cl)c4)c3c2)o1 [lapatinib]
Method in brief: as §1

[10] = compound: CS(=O)(=O)c1ccc(-c2cnc(N)c(C(=O)Nc3ccccc3)n2)cc1
Method in brief: as §1

[11] = compound: C[C@@H](Oc1cc(-c2cnn(C3CCNCC3)c2)cnc1N)c1c(Cl)ccc(F)c1Cl [crizotinib]
Method in brief: as §1

[12] = compound: C[C@H](C1=CC=C(C=C1)C(=O)NC2=C3C=CNC3=NC=C2)N
Method in brief: as §1

[13] = compound: C[C@H](Nc1ncnc2nc[nH]c12)c1cc2cccc(Cl)c2c(=O)n1-c1ccccc1 [duvelisib]
Method in brief: as §1

[14] = compound: Cc1cc(Nc2cc(N3CCN(C)CC3)nc(Sc3ccc(NC(=O)C4CC4)cc3)n2)n[nH]1 [tozasertib]
Method in brief: as §1

[15] = compound: Cc1cc(SCc2sc(-c3ccc(C(F)(F)F)cc3)nc2C)ccc1OCC(=O)O
Method in brief: as §1

[16] = compound: Cc1ccc(-n2nc(C(C)(C)C)cc2NC(=O)Nc2ccc(OCCN3CCOCC3)c3ccccc23)cc1 [doramapimod]
Method in brief: as §1

[17] = compound: Cc1ccc(C(=O)N(CCCN)[C@@H](c2nc3cc(Cl)ccc3c(=O)n2Cc2ccccc2)C(C)C)cc1 [ispinesib]
Method in brief: as §1

[18] = compound: CS(=O)(=O)N1CCN(Cc2cc3nc(-c4cccc5[nH]ncc45)nc(N4CCOCC4)c3s2)CC1 [pictilisib]
Method in brief: as §1

[19] = compound: C[C@@H]1COCCN1C2=NC(=NC(=C2)C3(CC3)S(=O)(=O)C)C4=C5C=CNC5=CC=C4
Method in brief: as §1

[20] = compound: Cc1cc(Nc2cc(CN3CCOCC3)c3nc(C)c(Cc4ccc(Cl)cc4F)n3n2)n[nH]1 [gandotinib]
Method in brief: as §1

Target	log2 fold change [1]	log2 fold change [2]	log2 fold change [3]	log2 fold change [4]	log2 fold change [5]	log2 fold change [6]	log2 fold change [7]	log2 fold change [8]	log2 fold change [9]	log2 fold change [10]	log2 fold change [11]	log2 fold change [12]	log2 fold change [13]	log2 fold change [14]	log2 fold change [15]	log2 fold change [16]	log2 fold change [17]	log2 fold change [18]	log2 fold change [19]	log2 fold change [20]
TSPAN3 (UniProt O60637)	inactive: 0.021	inactive: -0.016	inactive: 0.028	inactive: 0.018	inactive: -0.005	inactive: -0.058	inactive: -0.039	inactive: 0.052	inactive: -0.024	inactive: 0.018	inactive: -0.051	inactive: 0.13	inactive: 0.045	inactive: -0.156	inactive: 0.062	inactive: 0.089	inactive: -0.266	–	–	–
UBE2Q1 (UniProt Q7Z7E8)	inactive: -0.09	inactive: -0.042	inactive: 0.022	inactive: 0.006	inactive: -0.055	inactive: 0.012	inactive: -0.02	inactive: -0.044	inactive: 0.01	inactive: 0	inactive: -0.061	inactive: 0.004	–	–	inactive: 0.07	inactive: 0.029	inactive: -0.001	inactive: 0.039	inactive: 0.092	inactive: -0.196
TUBA4A (UniProt C9JJQ8)	inactive: 0.083	inactive: 0.016	inactive: -0.041	–	–	inactive: 0.052	–	–	inactive: 0.018	inactive: 0.009	inactive: -0.019	inactive: -0.159	–	–	inactive: 0.108	inactive: -0.046	–	–	–	–
TTC4 (UniProt O95801)	inactive: 0.087	inactive: 0.004	inactive: 0.016	inactive: -0.003	inactive: 0.029	inactive: 0.054	inactive: 0.032	inactive: -0.072	inactive: -0.003	inactive: 0.046	inactive: -0.001	inactive: 0.029	–	–	inactive: 0.134	inactive: -0.028	inactive: 0.108	inactive: -0.016	inactive: 0.017	inactive: -0.025
UBE3B (UniProt Q7Z3V4)	inactive: 0.03	inactive: 0.058	inactive: 0.086	inactive: 0.065	–	inactive: 0.247	inactive: -0.037	–	inactive: 0.212	inactive: 0.106	inactive: -0.133	inactive: -0.108	–	–	inactive: 0.021	inactive: -0.055	inactive: 0.178	–	inactive: 0.254	–
TUBB8B (UniProt A6NNZ2)	inactive: 0.005	inactive: -0.109	inactive: -0.061	–	inactive: -0.076	–	inactive: 0.004	inactive: 0.107	–	inactive: -0.078	inactive: -0.182	inactive: -0.061	–	inactive: -0.19	–	inactive: 0	inactive: -0.014	–	inactive: 0.017	–
TUBB4A (UniProt P04350)	inactive: 0.188	inactive: -0.048	inactive: 0.085	inactive: 0.062	inactive: -0.041	inactive: -0.104	inactive: -0.033	inactive: 0.14	inactive: 0.052	inactive: 0.04	inactive: -0.181	inactive: -0.012	inactive: 0.125	inactive: -0.028	inactive: 0.045	inactive: 0.021	inactive: 0.044	–	inactive: -0.009	–
TTI2 (UniProt Q6NXR4)	inactive: 0.012	inactive: 0.06	inactive: -0.008	inactive: -0.04	inactive: 0.028	inactive: -0.034	inactive: -0.081	inactive: -0.025	inactive: 0.033	inactive: -0.066	inactive: -0.155	inactive: 0.121	–	–	inactive: 0.142	inactive: 0.013	inactive: -0.204	–	inactive: 0.028	–
TTMP isoform 3 (UniProt Q5BVD1)	inactive: 0.362	inactive: -0.272	inactive: 0.107	inactive: -0.166	inactive: 0.086	–	inactive: 0.073	inactive: -0.051	–	inactive: 0.146	inactive: -0.018	inactive: -0.229	inactive: 0.102	inactive: -0.047	inactive: -0.043	inactive: 0.05	inactive: -0.054	inactive: 0.234	inactive: 0.203	inactive: 0.143
UBE2K (UniProt D6RDM7)	inactive: -0.251	inactive: 0.078	inactive: -0.273	–	–	inactive: 0.162	inactive: 0.082	–	inactive: -0.167	inactive: 0.214	inactive: 0.074	inactive: 0.02	inactive: 0.243	inactive: -0.134	inactive: -0.379	inactive: 0.007	inactive: -0.101	–	inactive: 0.193	–
TUBGCP4 (UniProt Q9UGJ1)	inactive: -0.181	inactive: 0.672	inactive: -0.044	inactive: 0.113	–	inactive: 0.03	–	–	inactive: 0.086	inactive: 0.132	inactive: -0.071	inactive: 0.407	inactive: -0.064	inactive: 0.086	inactive: 0.475	inactive: 0.033	inactive: -0.011	–	–	–
TTPAL (UniProt Q9BTX7)	inactive: 0.019	inactive: 0.044	inactive: 0.095	inactive: -0.032	–	inactive: 0.058	inactive: -0.176	–	inactive: 0.035	inactive: -0.009	inactive: 0.073	inactive: -0.113	inactive: -0.06	inactive: -0.063	inactive: -0.138	inactive: -0.038	inactive: 0.144	inactive: 0.082	inactive: 0.128	inactive: -0.073
TUT4 (UniProt Q5TAX3)	inactive: -0.265	inactive: 0.092	inactive: -0.237	–	inactive: -0.02	inactive: 0.158	inactive: 0.051	inactive: -0.025	inactive: 0.021	inactive: 0.069	inactive: 0.075	inactive: 0.095	–	–	inactive: 0.195	inactive: -0.003	inactive: -0.124	inactive: 0.009	inactive: -0.286	inactive: 0.024
TUBB6 (UniProt K7ES63)	inactive: -0.181	inactive: 0.146	inactive: -0.436	inactive: -0.064	inactive: 0.417	inactive: 0.059	inactive: 0.17	inactive: 0.138	inactive: -0.105	inactive: -0.092	inactive: -0.032	inactive: 0.183	inactive: 0.035	inactive: -0.203	inactive: -0.074	inactive: 0.19	inactive: -0.032	–	inactive: -0.017	–
TSPAN31 (UniProt Q12999)	inactive: -0.083	inactive: -0.033	inactive: -0.089	inactive: -0.038	inactive: -0.13	inactive: -0.013	inactive: 0.032	inactive: 0.113	inactive: -0.064	inactive: 0.059	inactive: 0.035	inactive: 0.11	inactive: 0.007	inactive: 0.028	inactive: -0.053	inactive: 0.149	–	–	inactive: 0.028	–
TTC7B isoform 2 (UniProt Q86TV6)	inactive: 0.178	inactive: 0.913	inactive: -0.005	inactive: 0.015	–	inactive: 0.01	inactive: 0.069	–	inactive: -0.093	inactive: 0.487	inactive: 0.008	inactive: 0.049	inactive: 0.13	inactive: -0.029	inactive: 0.169	inactive: 0.021	inactive: 0.003	inactive: 0.112	–	inactive: -0.154
UBE2G2 (UniProt P60604)	inactive: -0.028	inactive: -0.134	inactive: 0	inactive: -0.176	inactive: -0.026	inactive: -0.227	inactive: 0.098	inactive: 0.048	inactive: -0.002	inactive: 0.341	inactive: -0.214	inactive: -0.114	inactive: 0.205	inactive: -0.04	inactive: 0.049	inactive: -0.02	inactive: -0.239	inactive: -0.301	–	inactive: 0.056
TSFM (UniProt P43897)	inactive: 0.152	inactive: -0.146	inactive: 0.042	inactive: 0.039	inactive: 0.047	inactive: 0.12	inactive: 0.117	inactive: -0.002	inactive: -0.006	inactive: -0.083	inactive: 0.171	inactive: -0.104	–	–	inactive: 0.095	inactive: -0.095	active: 0.398	inactive: 0.066	inactive: 0.152	inactive: -0.083
UBAP2L isoform 1 (UniProt Q14157)	inactive: 0.016	inactive: -0.014	inactive: 0.011	inactive: 0.059	inactive: -0.05	inactive: 0.213	inactive: 0.074	inactive: 0.103	inactive: -0.248	inactive: -0.034	inactive: 0.077	inactive: -0.008	–	–	inactive: -0.056	inactive: 0.034	inactive: -0.026	inactive: -0.114	inactive: 0.009	inactive: -0.007
TXNDC11 (UniProt Q6PKC3)	inactive: -0.086	inactive: 0.038	inactive: 0.018	inactive: 0.003	inactive: -0.012	inactive: -0.142	–	inactive: -0.079	inactive: 0.072	inactive: -0.016	inactive: 0.033	inactive: 0.031	inactive: 0.07	inactive: 0.032	inactive: 0.025	inactive: -0.024	inactive: -0.024	inactive: 0.04	inactive: 0.133	inactive: 0.046
TTC33 (UniProt Q6PID6)	inactive: 0.094	inactive: 0.031	inactive: -0.113	inactive: -0.039	inactive: 0.071	inactive: 0.082	–	inactive: 0.086	inactive: -0.15	inactive: 0.056	inactive: -0.399	inactive: 0.146	–	–	inactive: -0.06	inactive: -0.15	inactive: -0.095	inactive: -0.093	inactive: -0.113	inactive: -0.192
UBA52 (UniProt P62987)	inactive: 0	inactive: 0.519	inactive: -0.171	inactive: 0.308	inactive: -0.131	inactive: -0.203	–	inactive: -0.275	inactive: 0.141	inactive: -0.065	inactive: -0.02	inactive: 0.364	–	–	–	inactive: 0.118	inactive: -0.165	inactive: -0.177	active: -0.909	inactive: 0.44

Complete entries from above. Order of values: log2 fold change [1] | log2 fold change [2] | log2 fold change [3] | log2 fold change [4] | log2 fold change [5] | log2 fold change [6] | log2 fold change [7] | log2 fold change [8] | log2 fold change [9] | log2 fold change [10] | log2 fold change [11] | log2 fold change [12] | log2 fold change [13] | log2 fold change [14] | log2 fold change [15] | log2 fold change [16] | log2 fold change [17] | log2 fold change [18] | log2 fold change [19] | log2 fold change [20]
TUBB4A (UniProt P04350) is listed with inactive: 0.188 | inactive: -0.048 | inactive: 0.085 | inactive: 0.062 | inactive: -0.041 | inactive: -0.104 | inactive: -0.033 | inactive: 0.14 | inactive: 0.052 | inactive: 0.04 | inactive: -0.181 | inactive: -0.012 | inactive: 0.125 | inactive: -0.028 | inactive: 0.045 | inactive: 0.021 | inactive: 0.044 | – | inactive: -0.009 | –
TXNDC11 (UniProt Q6PKC3) is listed with inactive: -0.086 | inactive: 0.038 | inactive: 0.018 | inactive: 0.003 | inactive: -0.012 | inactive: -0.142 | – | inactive: -0.079 | inactive: 0.072 | inactive: -0.016 | inactive: 0.033 | inactive: 0.031 | inactive: 0.07 | inactive: 0.032 | inactive: 0.025 | inactive: -0.024 | inactive: -0.024 | inactive: 0.04 | inactive: 0.133 | inactive: 0.046
